1 molecule from PMC6375223 can be followed below.

Sequences of proteins named here, by UniProt entry; tags and fusion partners are left off.
UniProt Q13309: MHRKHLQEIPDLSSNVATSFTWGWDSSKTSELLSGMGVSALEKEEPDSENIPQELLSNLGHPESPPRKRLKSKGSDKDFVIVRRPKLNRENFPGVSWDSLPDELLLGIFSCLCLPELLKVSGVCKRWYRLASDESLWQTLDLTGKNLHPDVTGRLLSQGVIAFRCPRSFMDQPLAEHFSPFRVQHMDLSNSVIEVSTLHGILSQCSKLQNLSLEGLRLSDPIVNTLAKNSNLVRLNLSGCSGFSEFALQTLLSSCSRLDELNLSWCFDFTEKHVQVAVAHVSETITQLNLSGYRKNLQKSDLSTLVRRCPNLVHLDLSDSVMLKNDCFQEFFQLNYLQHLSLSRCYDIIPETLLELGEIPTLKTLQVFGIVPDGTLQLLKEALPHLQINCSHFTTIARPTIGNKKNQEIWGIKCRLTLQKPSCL

For this assay, the target named is Myc-SKP2 (S-phase kinase-associated protein 2) (UniProt Q13309). In words: affinity purification with mass spectrometry; lysates of 293 T cells stably transfected with vector or Myc-SKP2, immunoprecipitated with Myc antibody, SDS-PAGE, bands excised from Coomassie staining.

Results are given in words; binding and its absence hold for the method and conditions named. Binding seen in cells or lysates may run through a third protein. Here binding means that the protein was enriched with, or labelled near, the bait; the list need not be complete.

B1: Programmed cell death protein 4 (PDCD4), endogenous (protein, UniProt Q53EL6 1-469)
chain: MDVENEQILNVNPADPDNLSDSLFSGDEENAGTEEIKNEINGNWISASSINEARINAKAKRRLRKNSSRDSGRGDSVSDSGSDALRSGLTVPTSPKGRLLDRRSRSGKGRGLPKKGGAGGKGVWGTPGQVYDVEEVDVKDPNYDDDQENCVYETVVLPLDERAFEKTLTPIIQEYFEHGDTNEVAEMLRDLNLGEMKSGVPVLAVSLALEGKASHREMTSKLLSDLCGTVMSTTDVEKSFDKLLKDLPELALDTPRAPQLVGQFIARAVGDGILCNTYIDSYKGTVDCVQARAALDKATVLLSMSKGGKRKDSVWGSGGGQQSVNHLVKEIDMLLKEYLLSGDISEAEHCLKELEVPHFHHELVYEAIIMVLESTGESTFKMILDLLKSLWKSSTITVDQMKRGYERIYNEIPDINLDVPHSYSVLERFVEECFQAGIISKQLRDLCPSRGRKRFVSEGDGGRLKPESY
Consider B1, for which the binding result is listed as “binds”.
